Experimental data taken from paper doi:10.1101/2025.02.01.635992.
Results are given in words; binding and its absence hold for the method and conditions named. Binding seen in cells or lysates may run through a third protein. Some entries that bind do so weakly or less than the wild type.

The chains behind the UniProt entries cited, without tags or fusion partners. Where a name states a change or a piece, a line headed by the entry shows the natural chain unless it says otherwise.
UniProt Q9Y519, whole entry: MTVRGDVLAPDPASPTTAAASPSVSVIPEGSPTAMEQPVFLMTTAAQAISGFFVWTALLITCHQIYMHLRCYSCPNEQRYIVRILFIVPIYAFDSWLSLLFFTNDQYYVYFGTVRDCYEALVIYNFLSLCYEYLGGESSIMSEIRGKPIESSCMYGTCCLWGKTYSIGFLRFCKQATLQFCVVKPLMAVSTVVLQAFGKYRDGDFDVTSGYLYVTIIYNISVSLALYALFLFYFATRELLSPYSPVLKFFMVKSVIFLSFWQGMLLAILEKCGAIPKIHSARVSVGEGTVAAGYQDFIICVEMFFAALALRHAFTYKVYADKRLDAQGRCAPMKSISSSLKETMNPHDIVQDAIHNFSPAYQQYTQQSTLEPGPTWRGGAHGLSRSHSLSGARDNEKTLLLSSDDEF
UniProt Q93050, whole entry: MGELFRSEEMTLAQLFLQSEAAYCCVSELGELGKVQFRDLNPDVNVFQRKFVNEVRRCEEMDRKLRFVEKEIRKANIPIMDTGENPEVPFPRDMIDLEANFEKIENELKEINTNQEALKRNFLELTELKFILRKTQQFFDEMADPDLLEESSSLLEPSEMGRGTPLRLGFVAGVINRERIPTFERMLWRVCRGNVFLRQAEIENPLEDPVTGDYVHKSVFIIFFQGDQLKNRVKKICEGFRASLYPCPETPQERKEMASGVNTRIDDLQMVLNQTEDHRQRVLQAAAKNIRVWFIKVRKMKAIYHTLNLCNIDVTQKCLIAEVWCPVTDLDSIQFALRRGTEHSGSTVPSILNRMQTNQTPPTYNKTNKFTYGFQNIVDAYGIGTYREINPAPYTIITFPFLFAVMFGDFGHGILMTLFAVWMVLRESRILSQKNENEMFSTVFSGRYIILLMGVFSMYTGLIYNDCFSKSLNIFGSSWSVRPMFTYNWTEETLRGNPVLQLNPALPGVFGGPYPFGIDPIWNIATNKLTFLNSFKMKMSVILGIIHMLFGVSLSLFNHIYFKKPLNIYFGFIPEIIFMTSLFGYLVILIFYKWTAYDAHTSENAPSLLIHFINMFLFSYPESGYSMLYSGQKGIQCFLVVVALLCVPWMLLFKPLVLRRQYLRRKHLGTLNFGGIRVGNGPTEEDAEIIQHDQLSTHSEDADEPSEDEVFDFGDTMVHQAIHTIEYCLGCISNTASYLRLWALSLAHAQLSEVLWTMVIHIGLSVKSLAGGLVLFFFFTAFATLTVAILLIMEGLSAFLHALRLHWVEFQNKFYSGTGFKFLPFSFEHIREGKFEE
UniProt Q9Z1G4, whole entry: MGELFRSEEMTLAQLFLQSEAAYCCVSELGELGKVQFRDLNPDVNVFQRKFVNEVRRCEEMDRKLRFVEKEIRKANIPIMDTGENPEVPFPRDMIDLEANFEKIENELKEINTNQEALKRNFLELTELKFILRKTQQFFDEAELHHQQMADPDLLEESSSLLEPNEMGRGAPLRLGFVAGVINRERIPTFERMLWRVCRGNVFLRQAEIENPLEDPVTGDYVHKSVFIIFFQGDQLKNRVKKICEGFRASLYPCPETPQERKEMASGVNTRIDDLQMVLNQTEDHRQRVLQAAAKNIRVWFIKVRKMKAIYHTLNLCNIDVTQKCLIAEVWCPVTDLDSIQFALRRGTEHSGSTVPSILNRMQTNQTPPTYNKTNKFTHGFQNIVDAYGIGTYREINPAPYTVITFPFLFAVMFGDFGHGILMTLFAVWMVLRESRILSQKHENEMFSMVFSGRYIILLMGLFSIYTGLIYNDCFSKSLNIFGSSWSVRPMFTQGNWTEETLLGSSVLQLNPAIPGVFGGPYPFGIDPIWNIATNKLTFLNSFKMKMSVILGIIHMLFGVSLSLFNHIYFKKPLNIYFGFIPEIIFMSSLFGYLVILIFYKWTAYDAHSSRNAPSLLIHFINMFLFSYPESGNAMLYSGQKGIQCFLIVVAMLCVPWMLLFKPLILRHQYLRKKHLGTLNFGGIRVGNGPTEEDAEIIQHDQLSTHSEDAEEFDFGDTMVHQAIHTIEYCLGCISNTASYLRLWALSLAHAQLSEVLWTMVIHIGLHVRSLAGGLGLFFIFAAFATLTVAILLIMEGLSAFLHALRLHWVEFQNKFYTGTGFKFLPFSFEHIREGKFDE
UniProt P50516, whole entry: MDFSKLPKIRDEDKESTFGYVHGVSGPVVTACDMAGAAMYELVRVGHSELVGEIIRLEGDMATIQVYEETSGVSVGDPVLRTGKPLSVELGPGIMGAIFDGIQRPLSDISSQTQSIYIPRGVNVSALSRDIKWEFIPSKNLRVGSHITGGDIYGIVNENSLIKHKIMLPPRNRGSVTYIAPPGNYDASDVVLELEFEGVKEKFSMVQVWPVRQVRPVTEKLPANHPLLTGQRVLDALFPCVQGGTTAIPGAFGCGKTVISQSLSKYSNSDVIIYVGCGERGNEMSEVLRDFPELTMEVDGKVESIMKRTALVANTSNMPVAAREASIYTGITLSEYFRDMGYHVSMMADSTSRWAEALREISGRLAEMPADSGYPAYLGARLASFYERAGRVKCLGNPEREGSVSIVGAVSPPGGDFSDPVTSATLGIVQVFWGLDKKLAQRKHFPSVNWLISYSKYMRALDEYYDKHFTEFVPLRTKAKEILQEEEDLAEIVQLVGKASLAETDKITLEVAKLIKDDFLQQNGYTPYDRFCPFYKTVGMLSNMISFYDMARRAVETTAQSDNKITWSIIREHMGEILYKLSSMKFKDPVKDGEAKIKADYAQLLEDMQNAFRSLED
UniProt Q8BVE3, whole entry: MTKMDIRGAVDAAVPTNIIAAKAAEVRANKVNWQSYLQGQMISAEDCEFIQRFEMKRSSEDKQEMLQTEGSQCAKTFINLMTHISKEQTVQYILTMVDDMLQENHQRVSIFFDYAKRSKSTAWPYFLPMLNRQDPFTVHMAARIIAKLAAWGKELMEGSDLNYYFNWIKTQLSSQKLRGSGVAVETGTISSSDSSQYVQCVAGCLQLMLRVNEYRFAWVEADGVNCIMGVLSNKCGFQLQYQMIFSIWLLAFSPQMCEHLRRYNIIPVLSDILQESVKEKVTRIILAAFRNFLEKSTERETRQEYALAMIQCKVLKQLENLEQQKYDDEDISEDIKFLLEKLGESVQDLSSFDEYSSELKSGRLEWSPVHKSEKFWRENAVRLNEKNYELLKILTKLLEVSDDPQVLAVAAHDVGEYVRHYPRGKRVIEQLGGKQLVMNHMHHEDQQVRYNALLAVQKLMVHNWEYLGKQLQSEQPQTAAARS

Legend:
Assay in all cases: co-IP
[1] = biological target: FLAG-hTMEM184B-GFP (human) (UniProt Q9Y519)
[2] = biological target: ATP6V0A1 (V-ATPase subunit V0a1), human (human (endogenous in HEK293T)) (UniProt Q93050)
[3] = biological target: V-ATPase subunit V0a1 (ATP6V0A1), mouse (mouse (endogenous in hippocampus)) (UniProt Q9Z1G4)

| Substance | binding [3] | also measured |
| --- | --- | --- |
| ATP6V0A1 (V-ATPase subunit V0a1), human (from UniProt Q93050 1-837) | – | binding [1]: binds |
| FLAG-hTMEM184B-GFP (from UniProt Q9Y519 1-407) | – | binding [2]: binds |
| V-ATPase subunit V1A (ATP6V1A), mouse (from UniProt P50516 1-617) | binds | – |
| V-ATPase subunit V1H (ATP6V1H), mouse (from UniProt Q8BVE3 1-483) | binds | – |
